Results are given in words; binding and its absence hold for the method and conditions named. In cells and extracts the contact can be indirect. Some entries that bind do so weakly or less than the wild type.
B1: WTX-L (long, unspliced isoform of WTX; APC membrane recruitment protein 1) (protein, UniProt Q5JTC6 1-1135)
chain: METQKDEAAQAKGAAASGSTREQTAEKGAKNKAAEATEGPTSEPSSSGPGRLKKTAMKLFGGKKGICTLPSFFGGGRSKGSGKGSSKKGLSKSKTHDGLSEAAHGPEDVVSEGTGFSLPLPELPCQFPSSQSAHGALETGSRCKTSVAGATEKAVAEKFPSMPKPKKGLKGFFSSIRRHRKSKVTGAEQSEPGAKGPERVRARPHEHVSSAPQVPCFEETFQAPRKENANPQDAPGPKVSPTPEPSPPATEKMACKDPEKPMEACASAHVQPKPAPEASSLEEPHSPETGEKVVAGEVNPPNGPVGDPLSLLFGDVTSLKSFDSLTGCGDIIAEQDMDSMTDSMASGGQRANRDGTKRSSCLVTYQGGGEEMALPDDDDEEEEEEEEVELEEEEEEVKEEEEDDDLEYLWETAQMYPRPNMNLGYHPTTSPGHHGYMLLDPVRSYPGLAPGELLTPQSDQQESAPNSDEGYYDSTTPGFEDDSGEALGLVRRDCLPRDSYSGDALYEFYEPDDSLENSPPGDDCLYDLHGRSSEMFDPFLNFEPFLSSRPPGAMETEEERLVTIQKQLLYWELRREQLEAQEARAREAHAREAHAREAYTREAYGREAYAREAHTWEAHGREARTREAQAREVRCRETQVRETQARQEKPVLEYQMRPLGPSVMGLAAGVSGTSQISHRGITSAFPTTASSEPDWRDFRPLEKRYEGTCSKKDQSTCLMQLFQSDAMFEPDMQEANFGGSPRRAYPTYSPPEDPEEEEVEKEGNATVSFSQALVEFTSNGNLFSSMSCSSDSDSSFTQNLPELPPMVTFDIADVERDGEGKCEENPEFHNDEDLAASLEAFELGYYHKHAFNNYHSRFYQGLPWGVSSLPRYLGLPGLHPRPPPAAMALNRRSRSLDTAETLEMELSNSHLVQGYLESDELQAQQEDSDEEDEEEEEGEWSRDSPLSLYTEPPGAYDWPAWAPCPLPVGPGPAWISPNQLDRPSSQSPYRQATCCIPPMTMSISLSVPESRAPGESGPQLARPSHLHLPMGPCYNLQPQASQSMRARPRDVLLPVDEPSCSSSSGGFSPSPLPQAKPVGITHGIPQLPRVRPEHPQPQPTHYGPSSLDLSKERAEQGASLATSYSSTAMNGNLAK

Chains of the proteins cited; added tags and fusions are not shown.
UniProt P32121: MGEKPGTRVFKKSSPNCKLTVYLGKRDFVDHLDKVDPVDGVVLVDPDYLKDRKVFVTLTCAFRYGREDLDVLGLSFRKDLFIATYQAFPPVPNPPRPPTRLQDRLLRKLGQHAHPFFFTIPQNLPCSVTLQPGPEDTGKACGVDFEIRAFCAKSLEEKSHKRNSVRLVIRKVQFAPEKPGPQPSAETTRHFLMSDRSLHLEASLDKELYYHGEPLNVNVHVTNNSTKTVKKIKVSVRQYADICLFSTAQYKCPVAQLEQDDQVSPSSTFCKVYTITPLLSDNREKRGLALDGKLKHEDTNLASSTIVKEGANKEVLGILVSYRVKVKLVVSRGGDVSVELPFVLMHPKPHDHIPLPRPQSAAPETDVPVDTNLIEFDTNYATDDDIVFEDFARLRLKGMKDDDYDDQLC
UniProt P25963: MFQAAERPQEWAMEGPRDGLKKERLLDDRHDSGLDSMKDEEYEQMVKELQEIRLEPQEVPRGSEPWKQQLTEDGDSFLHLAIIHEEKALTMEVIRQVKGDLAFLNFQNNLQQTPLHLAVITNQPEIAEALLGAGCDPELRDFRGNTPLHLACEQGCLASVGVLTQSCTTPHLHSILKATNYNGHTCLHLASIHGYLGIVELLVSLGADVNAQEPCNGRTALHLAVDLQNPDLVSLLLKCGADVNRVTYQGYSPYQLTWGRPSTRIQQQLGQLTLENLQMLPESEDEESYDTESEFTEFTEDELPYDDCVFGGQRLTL

Target: β-arrestin2 (human (endogenous in AGS)) (UniProt P32121)
Test: co-IP; AGS cell lysates incubated with antibodies overnight, then protein A/G-sepharose beads for 4 h, washed three times with ice-cold lysis buffer, immunoblot; cells with or without 3 μM erastin or 1 μM RSL3 for 24 h (Figure 4A); AGS.Vector and AGS.WTX-L cells (Figure 4B)

Molecule | binding
IκBα (from UniProt P25963 1-317) | binds
B1 | binds
